Measured values as given in the supplement of paper PMC12067093, “Discovery and optimisation of a covalent ligand for TRIM25 and its application to targeted protein ubiquitination” (Chemical Science, 2025).
The list shows a part of the results.

Amino acid sequences for entries named in this document (tags omitted). A change or cut given only in a name is not applied to a line headed by its entry.
UniProt P33992: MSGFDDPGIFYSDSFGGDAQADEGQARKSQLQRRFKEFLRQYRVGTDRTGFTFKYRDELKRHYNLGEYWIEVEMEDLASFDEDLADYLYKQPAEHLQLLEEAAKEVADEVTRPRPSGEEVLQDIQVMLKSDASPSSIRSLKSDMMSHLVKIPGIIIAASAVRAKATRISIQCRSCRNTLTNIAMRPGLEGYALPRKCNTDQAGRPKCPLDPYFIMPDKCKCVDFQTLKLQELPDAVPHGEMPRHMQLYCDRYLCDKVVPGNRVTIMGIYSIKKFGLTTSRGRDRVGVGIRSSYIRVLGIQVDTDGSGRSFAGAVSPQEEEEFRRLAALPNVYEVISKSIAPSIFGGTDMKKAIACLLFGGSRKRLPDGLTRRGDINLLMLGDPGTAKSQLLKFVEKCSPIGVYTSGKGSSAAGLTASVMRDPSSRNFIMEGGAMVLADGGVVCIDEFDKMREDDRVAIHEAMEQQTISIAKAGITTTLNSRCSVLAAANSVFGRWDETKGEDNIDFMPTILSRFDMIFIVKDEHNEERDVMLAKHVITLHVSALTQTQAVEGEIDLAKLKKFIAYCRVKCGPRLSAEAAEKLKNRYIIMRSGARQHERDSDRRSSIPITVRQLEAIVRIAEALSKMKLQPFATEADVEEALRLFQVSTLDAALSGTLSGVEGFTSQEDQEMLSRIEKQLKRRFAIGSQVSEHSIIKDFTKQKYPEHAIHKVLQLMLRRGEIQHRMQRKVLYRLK
UniProt Q9HCC0: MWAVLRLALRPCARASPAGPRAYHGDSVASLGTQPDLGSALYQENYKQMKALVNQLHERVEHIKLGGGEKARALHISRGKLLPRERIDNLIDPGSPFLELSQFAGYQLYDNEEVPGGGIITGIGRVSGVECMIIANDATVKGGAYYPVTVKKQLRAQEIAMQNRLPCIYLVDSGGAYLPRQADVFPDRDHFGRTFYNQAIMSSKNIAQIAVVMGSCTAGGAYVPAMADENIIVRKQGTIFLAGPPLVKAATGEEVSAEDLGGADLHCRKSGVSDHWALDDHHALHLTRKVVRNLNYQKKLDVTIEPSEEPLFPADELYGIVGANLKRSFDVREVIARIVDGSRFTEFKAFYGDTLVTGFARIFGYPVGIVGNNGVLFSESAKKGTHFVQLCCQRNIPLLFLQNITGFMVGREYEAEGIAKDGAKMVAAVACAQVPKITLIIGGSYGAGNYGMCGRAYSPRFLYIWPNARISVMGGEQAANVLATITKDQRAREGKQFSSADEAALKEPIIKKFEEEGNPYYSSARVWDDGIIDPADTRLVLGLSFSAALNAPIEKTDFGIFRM
UniProt Q9ULC4: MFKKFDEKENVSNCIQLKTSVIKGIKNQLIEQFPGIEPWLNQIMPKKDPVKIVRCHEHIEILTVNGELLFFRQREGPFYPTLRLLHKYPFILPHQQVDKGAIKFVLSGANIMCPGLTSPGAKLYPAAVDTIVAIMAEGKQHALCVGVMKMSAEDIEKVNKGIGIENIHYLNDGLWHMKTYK
UniProt P50579: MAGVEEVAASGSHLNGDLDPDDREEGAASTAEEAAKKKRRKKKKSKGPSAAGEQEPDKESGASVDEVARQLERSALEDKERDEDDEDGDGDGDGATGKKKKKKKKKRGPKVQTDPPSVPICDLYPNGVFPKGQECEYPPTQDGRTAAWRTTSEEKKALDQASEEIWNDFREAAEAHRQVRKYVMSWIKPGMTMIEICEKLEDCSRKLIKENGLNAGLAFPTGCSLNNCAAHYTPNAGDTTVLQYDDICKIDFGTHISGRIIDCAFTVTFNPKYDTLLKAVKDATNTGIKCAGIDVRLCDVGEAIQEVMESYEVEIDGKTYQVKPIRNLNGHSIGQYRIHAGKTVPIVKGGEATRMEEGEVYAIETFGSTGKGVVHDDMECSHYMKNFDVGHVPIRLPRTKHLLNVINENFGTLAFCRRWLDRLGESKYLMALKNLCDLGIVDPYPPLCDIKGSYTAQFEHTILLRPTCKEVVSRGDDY
UniProt O75586: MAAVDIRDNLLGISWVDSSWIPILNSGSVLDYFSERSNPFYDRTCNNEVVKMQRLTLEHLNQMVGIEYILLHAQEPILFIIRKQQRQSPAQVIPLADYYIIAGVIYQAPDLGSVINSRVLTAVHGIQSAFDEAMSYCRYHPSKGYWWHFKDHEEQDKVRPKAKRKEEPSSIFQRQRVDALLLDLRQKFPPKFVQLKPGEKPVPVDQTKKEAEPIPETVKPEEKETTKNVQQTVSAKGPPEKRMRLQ
UniProt O95568: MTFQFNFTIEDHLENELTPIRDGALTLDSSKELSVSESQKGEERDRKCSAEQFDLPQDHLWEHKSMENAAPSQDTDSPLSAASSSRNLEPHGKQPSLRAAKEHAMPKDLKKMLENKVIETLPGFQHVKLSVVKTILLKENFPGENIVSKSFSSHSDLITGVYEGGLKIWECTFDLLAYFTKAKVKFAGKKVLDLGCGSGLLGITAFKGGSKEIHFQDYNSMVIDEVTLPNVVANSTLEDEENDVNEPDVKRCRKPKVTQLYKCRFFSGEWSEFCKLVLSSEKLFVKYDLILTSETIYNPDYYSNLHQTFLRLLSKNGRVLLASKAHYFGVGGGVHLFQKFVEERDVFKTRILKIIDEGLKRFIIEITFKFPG
UniProt Q6UX53: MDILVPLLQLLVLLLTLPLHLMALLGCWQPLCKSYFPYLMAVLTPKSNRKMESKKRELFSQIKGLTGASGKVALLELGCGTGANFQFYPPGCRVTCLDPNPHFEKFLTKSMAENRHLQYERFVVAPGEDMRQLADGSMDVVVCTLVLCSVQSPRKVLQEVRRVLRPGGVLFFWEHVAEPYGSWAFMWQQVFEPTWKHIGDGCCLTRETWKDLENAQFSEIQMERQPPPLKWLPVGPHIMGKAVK
UniProt Q9Y316: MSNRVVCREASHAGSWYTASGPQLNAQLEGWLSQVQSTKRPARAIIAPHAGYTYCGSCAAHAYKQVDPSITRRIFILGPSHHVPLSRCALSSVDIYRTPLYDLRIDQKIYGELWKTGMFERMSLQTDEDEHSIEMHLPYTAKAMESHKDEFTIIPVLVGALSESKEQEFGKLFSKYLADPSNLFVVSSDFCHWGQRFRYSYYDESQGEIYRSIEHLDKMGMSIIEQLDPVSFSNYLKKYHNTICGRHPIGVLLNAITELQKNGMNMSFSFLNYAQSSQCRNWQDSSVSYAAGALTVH
UniProt P25205: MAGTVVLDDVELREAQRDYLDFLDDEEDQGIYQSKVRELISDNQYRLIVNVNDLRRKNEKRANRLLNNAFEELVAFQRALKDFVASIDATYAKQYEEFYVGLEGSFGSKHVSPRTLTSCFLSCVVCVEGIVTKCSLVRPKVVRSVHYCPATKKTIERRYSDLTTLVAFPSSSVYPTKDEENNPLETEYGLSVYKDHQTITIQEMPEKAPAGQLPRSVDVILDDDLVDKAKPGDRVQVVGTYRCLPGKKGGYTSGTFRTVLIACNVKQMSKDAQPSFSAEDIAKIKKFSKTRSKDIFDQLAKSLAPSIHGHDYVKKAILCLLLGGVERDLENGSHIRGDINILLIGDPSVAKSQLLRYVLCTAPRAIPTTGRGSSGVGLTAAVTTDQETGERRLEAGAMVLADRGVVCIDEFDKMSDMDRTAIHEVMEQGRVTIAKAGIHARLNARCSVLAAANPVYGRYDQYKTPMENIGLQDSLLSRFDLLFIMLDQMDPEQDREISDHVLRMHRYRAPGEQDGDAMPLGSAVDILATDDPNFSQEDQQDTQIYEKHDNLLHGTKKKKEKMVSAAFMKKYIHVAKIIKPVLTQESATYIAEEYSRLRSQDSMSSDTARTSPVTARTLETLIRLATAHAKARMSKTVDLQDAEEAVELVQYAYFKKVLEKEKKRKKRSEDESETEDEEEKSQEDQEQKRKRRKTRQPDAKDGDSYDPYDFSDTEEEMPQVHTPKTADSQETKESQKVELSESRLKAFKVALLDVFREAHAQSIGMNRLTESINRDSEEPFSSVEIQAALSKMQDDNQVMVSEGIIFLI
UniProt Q05BQ5, whole entry, looked up: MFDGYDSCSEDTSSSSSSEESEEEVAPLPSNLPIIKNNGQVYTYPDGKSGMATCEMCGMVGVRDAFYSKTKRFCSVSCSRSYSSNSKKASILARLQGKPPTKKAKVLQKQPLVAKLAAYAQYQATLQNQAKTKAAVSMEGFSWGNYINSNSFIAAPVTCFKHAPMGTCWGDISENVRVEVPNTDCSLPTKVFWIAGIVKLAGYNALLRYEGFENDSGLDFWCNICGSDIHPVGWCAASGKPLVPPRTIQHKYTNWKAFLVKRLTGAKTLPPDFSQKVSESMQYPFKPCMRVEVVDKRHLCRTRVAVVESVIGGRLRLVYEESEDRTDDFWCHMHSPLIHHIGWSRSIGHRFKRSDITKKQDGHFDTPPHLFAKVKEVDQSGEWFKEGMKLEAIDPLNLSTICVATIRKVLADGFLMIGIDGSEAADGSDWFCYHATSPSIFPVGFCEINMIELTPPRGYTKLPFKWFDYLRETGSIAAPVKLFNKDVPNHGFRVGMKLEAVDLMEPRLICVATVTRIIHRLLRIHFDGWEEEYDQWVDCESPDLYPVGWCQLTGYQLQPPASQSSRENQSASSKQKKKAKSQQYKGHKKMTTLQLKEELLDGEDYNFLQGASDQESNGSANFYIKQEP
UniProt Q8IVS2: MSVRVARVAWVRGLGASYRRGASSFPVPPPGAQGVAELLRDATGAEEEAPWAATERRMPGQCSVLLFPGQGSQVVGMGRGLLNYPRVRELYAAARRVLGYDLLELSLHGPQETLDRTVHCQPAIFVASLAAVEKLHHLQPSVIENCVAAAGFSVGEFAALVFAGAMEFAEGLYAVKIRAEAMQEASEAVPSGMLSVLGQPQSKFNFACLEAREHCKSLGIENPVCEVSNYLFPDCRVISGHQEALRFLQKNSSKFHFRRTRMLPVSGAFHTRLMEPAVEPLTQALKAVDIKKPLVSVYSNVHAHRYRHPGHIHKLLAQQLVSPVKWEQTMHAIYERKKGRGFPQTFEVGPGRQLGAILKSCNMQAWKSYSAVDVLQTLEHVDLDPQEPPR
UniProt Q8N6R0: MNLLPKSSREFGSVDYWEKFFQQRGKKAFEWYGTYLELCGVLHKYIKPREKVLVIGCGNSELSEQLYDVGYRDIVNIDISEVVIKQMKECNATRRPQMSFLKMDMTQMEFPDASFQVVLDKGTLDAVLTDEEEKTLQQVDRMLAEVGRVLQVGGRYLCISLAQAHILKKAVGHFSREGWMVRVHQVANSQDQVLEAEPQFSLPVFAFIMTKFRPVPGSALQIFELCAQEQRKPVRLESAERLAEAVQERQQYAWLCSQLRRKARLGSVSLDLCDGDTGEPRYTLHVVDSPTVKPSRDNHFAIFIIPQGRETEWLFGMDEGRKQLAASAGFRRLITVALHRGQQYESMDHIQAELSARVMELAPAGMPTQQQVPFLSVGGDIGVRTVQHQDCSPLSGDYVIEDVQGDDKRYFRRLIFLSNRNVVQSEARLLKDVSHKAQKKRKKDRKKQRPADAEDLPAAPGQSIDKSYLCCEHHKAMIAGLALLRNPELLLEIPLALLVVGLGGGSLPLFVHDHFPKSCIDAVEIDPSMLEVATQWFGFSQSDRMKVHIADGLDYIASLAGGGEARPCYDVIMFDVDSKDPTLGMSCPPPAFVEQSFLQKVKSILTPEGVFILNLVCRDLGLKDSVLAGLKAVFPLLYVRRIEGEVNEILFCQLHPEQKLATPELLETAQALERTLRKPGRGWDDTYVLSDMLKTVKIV
UniProt Q96PE7: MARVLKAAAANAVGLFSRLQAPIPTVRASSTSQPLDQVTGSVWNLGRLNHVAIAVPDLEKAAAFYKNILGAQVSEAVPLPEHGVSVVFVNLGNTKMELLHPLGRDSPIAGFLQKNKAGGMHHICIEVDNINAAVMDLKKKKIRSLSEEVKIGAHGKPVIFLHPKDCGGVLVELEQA
UniProt Q7L2J0: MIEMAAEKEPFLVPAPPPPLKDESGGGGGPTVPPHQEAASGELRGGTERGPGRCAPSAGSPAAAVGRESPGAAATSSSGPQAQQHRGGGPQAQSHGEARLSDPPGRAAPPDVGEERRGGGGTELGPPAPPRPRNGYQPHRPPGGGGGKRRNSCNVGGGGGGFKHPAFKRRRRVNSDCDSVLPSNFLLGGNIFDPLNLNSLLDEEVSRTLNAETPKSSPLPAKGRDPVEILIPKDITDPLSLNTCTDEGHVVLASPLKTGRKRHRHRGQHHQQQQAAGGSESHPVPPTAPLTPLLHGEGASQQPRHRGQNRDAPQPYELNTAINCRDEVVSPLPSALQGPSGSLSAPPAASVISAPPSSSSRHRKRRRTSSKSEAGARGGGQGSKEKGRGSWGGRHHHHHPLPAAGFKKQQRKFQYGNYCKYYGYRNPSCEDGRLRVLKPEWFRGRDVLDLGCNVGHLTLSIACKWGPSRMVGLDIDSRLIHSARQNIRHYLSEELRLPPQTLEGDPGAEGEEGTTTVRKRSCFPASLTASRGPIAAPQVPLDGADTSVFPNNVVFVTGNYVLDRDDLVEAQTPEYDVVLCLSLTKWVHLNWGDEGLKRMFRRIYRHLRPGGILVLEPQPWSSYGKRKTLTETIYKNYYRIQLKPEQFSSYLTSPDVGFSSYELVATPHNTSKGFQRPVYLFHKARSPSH

Compound: CC1Cc2ccccc2N1C(=O)C1CCCN(C1)C(=O)CCl (mixture of isomers) [TRIM25 ligand 11 (diastereomer mixture)]
Assay: probe-labelled cysteine peptide fold change vs DMSO (competition) (log2 fold change); higher = less target engagement (more negative = stronger competition)
Conditions: THP-1, incubation time: 4 h
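Also: competitive chemoproteomic profiling in live THP-1 cells with an iodoacetamide desthiobiotin (IA-DTB) probe, comparing probe-labelled peptide intensities in compound-treated cells against DMSO-treated controls.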

| Target | probe-labelled cysteine peptide fold change (10 µM) | probe-labelled cysteine peptide fold change (50 µM) |
| --- | --- | --- |
| MCMBP_Q9BTE3_249_VYEDWDCFK (UniProt Q9BTE3) | 0.134 | -0.0358 |
| MCM5_P33992_355_AIACLLFGGSR (UniProt P33992) | -0.24 | 0.175 |
| MEIOC_A2RUB1_875_CQDDRDVFALASAIK (UniProt A2RUB1) | -0.0609 | -0.188 |
| MDN1_Q9NU22_3985_KFEAVLSEPCR (UniProt Q9NU22) | -0.0833 | -0.136 |
| MCM5_P33992_249_HMQLYCDR (UniProt P33992) | 0.00743 | 0.057 |
| MDN1_Q9NU22_521_HHSWSDSSVGCEQAPEEVSEAR (UniProt Q9NU22) | 0.399 | -0.413 |
| METAP1_P53582_368_SAQFEHTLLVTDTGCEILTRR (UniProt P53582) | -0.119 | -0.0487 |
| MCCC2_Q9HCC0_431_MVAAVACAQVPK (UniProt Q9HCC0) | 0.0133 | -0.0336 |
| MCM5_P33992_197_KCNTDQAGR (UniProt P33992) | -0.125 | -0.0339 |
| MEFV_O15553_670_TAWILGACK (UniProt O15553) | -0.0661 | 0.00852 |
| MCTS1_Q9ULC4_14_ENVSNCIQLK (UniProt Q9ULC4) | -0.0863 | -0.0885 |
| MELTF_P08582-2_256_SEEEEGECPAHEEAR (UniProt P08582) | 0.191 | 0.0921 |
| MELTF_P08582_476_SCHAGFGSPAGWDVPVGALIQR (UniProt P08582) | 0.0511 | -0.0186 |
| METAP2_P50579_263_IIDCAFTVTFNPK (UniProt P50579) | 0.0495 | 0.114 |
| MED6_O75586_137_VLTAVHGIQSAFDEAMSYCR (UniProt O75586) | -0.491 | 0.141 |
| MCU_Q8NE86_97_CQFTLKPISDSVGVFLR (UniProt Q8NE86) | -0.212 | -0.196 |
| METTL18_O95568_48_CSAEQFDLPQDHLWEHK (UniProt O95568) | -0.285 |  |
| METTL7B_Q6UX53_202+203_HIGDGCCLTR (UniProt Q6UX53) | 0.0706 | -0.0175 |
| ME2_P23368_441_CLFASGSPFGPVK (UniProt P23368) | -0.014 | -0.0719 |
| MDN1_Q9NU22_1394_ALEFGEPVLLVGDTGCGK (UniProt Q9NU22) | -0.0161 | 0.145 |
| MEMO1_Q9Y316_244_YHNTICGR (UniProt Q9Y316) | 0.221 | 0.136 |

| Target | probe-labelled cysteine peptide fold change (10 µM) | probe-labelled cysteine peptide fold change (50 µM) |
| --- | --- | --- |
| MED1_Q15648_135_VAHHGENPVSCPELVQQLR (UniProt Q15648) | -0.00655 | -0.0663 |
| MCM3_P25205_123_TLTSCFLSCVVCVEGIVTK (UniProt P25205) | -0.216 | -0.195 |
| MELTF_P08582_603_SEDYELLCPNGAR (UniProt P08582) | 0.0149 | 0.0229 |
| MCCC2_Q9HCC0_391+392_KGTHFVQLCCQR (UniProt Q9HCC0) | 0.233 | 0.218 |
| MCTS1_Q9ULC4_113_FVLSGANIMCPGLTSPGAK (UniProt Q9ULC4) | -0.105 | -0.153 |
| MBTD1_Q05BQ5_288_VSESMQYPFKPCMR (UniProt Q05BQ5) | -0.00839 | 0.0202 |
| MEN1_O00255_414_EAASLLEAGEERPGEQSQGTQSQGSALQDPECFAHLLR (UniProt O00255) | 0.233 | -0.0122 |
| METTL18_O95568_196_VLDLGCGSGLLGITAFK (UniProt O95568) | 0.0383 | -0.0127 |
| MCAT_Q8IVS2_120_TVHCQPAIFVASLAAVEK (UniProt Q8IVS2) | -0.234 | -0.236 |
| MCM6_Q14566_636_MHCCDEVQPK (UniProt Q14566) | 0.0235 | 0.0411 |
| MCM4_P33991_306_TSQLIPEMQEAFFQCQVCAHTTR (UniProt P33991) | 0.117 | -0.0512 |
| METTL13_Q8N6R0_273_LGSVSLDLCDGDTGEPR (UniProt Q8N6R0) | -0.0246 | 0.00617 |
| MED24_O75448_816_LAVWCALSSYSSHK (UniProt O75448) | -0.195 | -0.162 |
| MCM6_Q14566_161_THPVHPELVSGTFLCLDCQTVIR (UniProt Q14566) | 0.203 | 0.298 |
| MCM10_Q7L590_329_DLTQCVSLFLFGEVHK (UniProt Q7L590) | 0.263 | 0.179 |
| MCCC2_Q9HCC0_167_LPCIYLVDSGGAYLPR (UniProt Q9HCC0) | 0.197 | 0.243 |
| METAP2_P50579_468_GSYTAQFEHTILLRPTCK (UniProt P50579) | -0.0265 | -0.075 |
| MCM4_P33991_509_FRAEINILLCGDPGTSK (UniProt P33991) | -0.162 | 0.0508 |
| MCM6_Q14566_351_NLYHNLCTSLFPTIHGNDEVKR (UniProt Q14566) | -0.237 | -0.0364 |
| MED23_Q9ULK4_712_ATHVTDFFTGSDSIQGTWCK (UniProt Q9ULK4) | 0.148 | 0.12 |
| MCEE_Q96PE7_166_DCGGVLVELEQA (UniProt Q96PE7) | -0.00109 | -0.223 |

Laid out differently: results already given
Target	probe-labelled cysteine peptide fold change (10 µM)	probe-labelled cysteine peptide fold change (50 µM)
MED6_O75586_137_VLTAVHGIQSAFDEAMSYCR (UniProt O75586)	-0.491	0.141
MCU_Q8NE86_97_CQFTLKPISDSVGVFLR (UniProt Q8NE86)	-0.212	-0.196
METTL18_O95568_48_CSAEQFDLPQDHLWEHK (UniProt O95568)	-0.285	
METTL7B_Q6UX53_202+203_HIGDGCCLTR (UniProt Q6UX53)	0.0706	-0.0175
ME2_P23368_441_CLFASGSPFGPVK (UniProt P23368)	-0.014	-0.0719
MDN1_Q9NU22_1394_ALEFGEPVLLVGDTGCGK (UniProt Q9NU22)	-0.0161	0.145
MEMO1_Q9Y316_244_YHNTICGR (UniProt Q9Y316)	0.221	0.136
MED1_Q15648_135_VAHHGENPVSCPELVQQLR (UniProt Q15648)	-0.00655	-0.0663
MCM3_P25205_123_TLTSCFLSCVVCVEGIVTK (UniProt P25205)	-0.216	-0.195
MELTF_P08582_603_SEDYELLCPNGAR (UniProt P08582)	0.0149	0.0229
MCCC2_Q9HCC0_391+392_KGTHFVQLCCQR (UniProt Q9HCC0)	0.233	0.218
MCTS1_Q9ULC4_113_FVLSGANIMCPGLTSPGAK (UniProt Q9ULC4)	-0.105	-0.153
MBTD1_Q05BQ5_288_VSESMQYPFKPCMR (UniProt Q05BQ5)	-0.00839	0.0202
MEN1_O00255_414_EAASLLEAGEERPGEQSQGTQSQGSALQDPECFAHLLR (UniProt O00255)	0.233	-0.0122
METTL18_O95568_196_VLDLGCGSGLLGITAFK (UniProt O95568)	0.0383	-0.0127
MCAT_Q8IVS2_120_TVHCQPAIFVASLAAVEK (UniProt Q8IVS2)	-0.234	-0.236
MCM6_Q14566_636_MHCCDEVQPK (UniProt Q14566)	0.0235	0.0411
MCM4_P33991_306_TSQLIPEMQEAFFQCQVCAHTTR (UniProt P33991)	0.117	-0.0512
METTL13_Q8N6R0_273_LGSVSLDLCDGDTGEPR (UniProt Q8N6R0)	-0.0246	0.00617
MED24_O75448_816_LAVWCALSSYSSHK (UniProt O75448)	-0.195	-0.162
MCM6_Q14566_161_THPVHPELVSGTFLCLDCQTVIR (UniProt Q14566)	0.203	0.298
METAP2_P50579_468_GSYTAQFEHTILLRPTCK (UniProt P50579)	-0.0265	-0.075
MCM4_P33991_509_FRAEINILLCGDPGTSK (UniProt P33991)	-0.162	0.0508
MCM6_Q14566_351_NLYHNLCTSLFPTIHGNDEVKR (UniProt Q14566)	-0.237	-0.0364
MED23_Q9ULK4_712_ATHVTDFFTGSDSIQGTWCK (UniProt Q9ULK4)	0.148	0.12

Following part

| Target | probe-labelled cysteine peptide fold change (10 µM) | probe-labelled cysteine peptide fold change (50 µM) |
| --- | --- | --- |
| MDN1_Q9NU22_57_DCTVLVGR (UniProt Q9NU22) | -0.0529 | -0.031 |
| MGAT2_Q10469_386_KTCRPSTQSAQIESLLNNNK (UniProt Q10469) | -0.194 | -0.394 |
| MCCC2_Q9HCC0_267_AATGEEVSAEDLGGADLHCR (UniProt Q9HCC0) | -0.139 | -0.276 |
| MED13_Q9UHV7_1228_DCCNDCYLALEHGR (UniProt Q9UHV7) | 0.0983 | -0.00312 |
| MCM3AP_O60318_1240_ETLQELQCFCK (UniProt O60318) | 0.398 | 0.321 |
| MCM3_P25205_126_TLTSCFLSCVVCVEGIVTK (UniProt P25205) | -0.199 | -0.161 |
| MCM4_P33991_331_CHTTHSMALIHNR (UniProt P33991) | 0.0883 | -0.0841 |
| MCM3AP_O60318_800_GVFCASEAEFQGYNVLLSLNK (UniProt O60318) | -0.0195 | 0.0181 |
| MCM5_P33992_355_AIACLLFGGSRK (UniProt P33992) | -0.506 | -0.414 |
| METTL7B_Q6UX53_79_VALLELGCGTGANFQFYPPGCR (UniProt Q6UX53) | -0.0975 | -0.168 |
| MCM5_P33992_397_CSPIGVYTSGK (UniProt P33992) | -0.0957 | 0.18 |
| MED18_Q9BUE0_43_GLCDNMEPETFLDHEMVFLLK (UniProt Q9BUE0) | 0.00704 | 0.0536 |
| MCMBP_Q9BTE3_3_PCGEDWLSHPLGIVQGFFAQNGVNPDWEK (UniProt Q9BTE3) | -0.333 | -0.445 |
| MGAT2_Q10469_386_TCRPSTQSAQIESLLNNNK (UniProt Q10469) | -0.0338 | 0.00591 |
| MCCC1_Q96RQ3_332_HNFCFMEMNTR (UniProt Q96RQ3) | 0.179 | -0.117 |
| MEPCE_Q7L2J0_522_SCFPASLTASR (UniProt Q7L2J0) | -0.0818 | -0.208 |
| METAP1_P53582_255_KLVQTTYECLMQAIDAVK (UniProt P53582) | -0.229 | 0.000754 |
| MDH2_P40926_275_EGVVECSFVK (UniProt P40926) | 0.0473 | 0.0859 |
| MCRS1_Q96EZ8_84_CSGSEPSSSEK (UniProt Q96EZ8) | -0.0508 | -0.0499 |
| MED14_O60244_1433_QGECTIFAAVR (UniProt O60244) | 0.177 | 0.249 |
| MCCC2_Q9HCC0_267_AATGEEVSAEDLGGADLHCRK (UniProt Q9HCC0) | -0.538 | -0.417 |

2 records drawn at random from those above:

| Target | probe-labelled cysteine peptide fold change (10 µM) | probe-labelled cysteine peptide fold change (50 µM) |
| --- | --- | --- |
| MCCC2_Q9HCC0_267_AATGEEVSAEDLGGADLHCRK (UniProt Q9HCC0) | -0.538 | -0.417 |
| MCCC2_Q9HCC0_167_LPCIYLVDSGGAYLPR (UniProt Q9HCC0) | 0.197 | 0.243 |

Remaining list, next part.

| Target | probe-labelled cysteine peptide fold change (10 µM) | probe-labelled cysteine peptide fold change (50 µM) |
| --- | --- | --- |
| MELTF_P08582_545_CVGNSQER (UniProt P08582) | 0.206 | 0.242 |
| MCTS1_Q9ULC4_144_QHALCVGVMK (UniProt Q9ULC4) | -0.044 | 0.0229 |
| MFSD14A_Q96MC6_465_HCGSHSHPHNTQAPGEAK (UniProt Q96MC6) | 0.0763 | -0.38 |
| MCM6_Q14566_158_THPVHPELVSGTFLCLDCQTVIR (UniProt Q14566) | 0.116 | 0.239 |
| MECR_Q9BV79_263_LALNCVGGK (UniProt Q9BV79) | -0.123 | 0.106 |
| MCM3_P25205_446_CSVLAAANPVYGR (UniProt P25205) | -0.0825 | -0.0713 |
| METAP2_P50579_135_GQECEYPPTQDGR (UniProt P50579) | -0.00959 | -0.355 |
| MEFV_O15553_355_CQDSHER (UniProt O15553) | 0.0214 | -0.096 |
| MCM6_Q14566_158+161_THPVHPELVSGTFLCLDCQTVIR (UniProt Q14566) | 0.0861 | -0.188 |
| MCM5_P33992_197_CNTDQAGRPK (UniProt P33992) | 0.0518 | 0.0921 |
| MCM4_P33991_212_LGEINVIGEPFLNVNCEHIK (UniProt P33991) | -0.00252 | -0.103 |
| MEPCE_Q7L2J0_244_DITDPLSLNTCTDEGHVVLASPLK (UniProt Q7L2J0) | -0.113 | -0.0443 |
| MCM3_P25205_148_SVHYCPATK (UniProt P25205) | 0.0515 | -0.0398 |
| METTL16_Q86W50_276_VTYTEFCQGR (UniProt Q86W50) | 0.122 | -0.0349 |
| METTL5_Q9NRN9_110_NAEEFELTNIDMVQCDVCLLSNR (UniProt Q9NRN9) | 0.194 | -0.162 |
| MED24_O75448_546_ILNPDHPCFRPDSTKVESLVALLNNSSEMK (UniProt O75448) | -0.226 | -0.154 |
| METTL2B_Q6P1Q9_241_CFAFVHDLCDEEK (UniProt Q6P1Q9) | 0.117 | 0.0885 |
| MCM7_P33993_566_YIAMCR (UniProt P33993) | -0.405 | 0.0286 |
| METTL13_Q8N6R0_226_FRPVPGSALQIFELCAQEQR (UniProt Q8N6R0) | 0.025 | -0.292 |
| MEMO1_Q9Y316_55+58_AIIAPHAGYTYCGSCAAHAYK (UniProt Q9Y316) | 0.0483 | -0.0879 |
| MEPCE_Q7L2J0_452_DVLDLGCNVGHLTLSIACK (UniProt Q7L2J0) | 0.295 | 0.0215 |
